Assay results: patent US7371536B2, “Methods for transporting vitamin C” (priority 1999, dated 2008)
At least one structure is not confirmed: it was looked up by name or label, or the drawing left a doubt.

Chains of the proteins cited; added tags and fusions are not shown. Lines headed by an entry give the natural chain unless they say otherwise; changes in a name come on top.
UniProt Q9WTW8: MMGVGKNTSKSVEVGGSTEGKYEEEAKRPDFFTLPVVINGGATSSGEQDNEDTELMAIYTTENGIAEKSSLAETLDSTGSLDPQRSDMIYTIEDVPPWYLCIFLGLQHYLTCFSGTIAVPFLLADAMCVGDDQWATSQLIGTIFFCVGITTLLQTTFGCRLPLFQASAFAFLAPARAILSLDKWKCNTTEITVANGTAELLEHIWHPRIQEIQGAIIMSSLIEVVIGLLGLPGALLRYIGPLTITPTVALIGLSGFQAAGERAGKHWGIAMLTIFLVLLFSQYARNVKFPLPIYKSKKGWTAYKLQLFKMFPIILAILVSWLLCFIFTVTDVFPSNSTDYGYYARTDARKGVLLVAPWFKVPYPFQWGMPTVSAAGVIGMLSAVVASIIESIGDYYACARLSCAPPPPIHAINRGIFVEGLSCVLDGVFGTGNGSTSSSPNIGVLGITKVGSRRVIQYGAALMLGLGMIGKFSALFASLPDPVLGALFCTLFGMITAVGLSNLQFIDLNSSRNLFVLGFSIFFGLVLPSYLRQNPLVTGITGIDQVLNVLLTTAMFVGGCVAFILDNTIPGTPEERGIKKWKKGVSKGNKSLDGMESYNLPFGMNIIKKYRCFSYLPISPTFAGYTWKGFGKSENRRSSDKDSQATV

Molecular target: T1, rat SVCT2 (Rattus norvegicus, UniProt Q9WTW8)
T1 construct: expressed in transfected cells; host or cells: Xenopus laevis oocytes injected with cRNA (vector pTLN2)
Test: L-[14C]ascorbic acid radiotracer uptake in Xenopus oocytes expressing rat SVCT2
Format: cell-based
Experimental: Rat SVCT1 and SVCT2 clones were obtained by isolating SVCT1 cDNA from rat kidney by expression cloning as described in Hediger et al., Methods Enzymol. 296:17-52 (1998). The SVCT2 cDNA was subsequently isolated by PCR-based homology screening of a rat brain cDNA library. A 2.5-kb rabbit cDNA with 96% identity to residues 96-505 of the rat SVCT2 was obtained by RT-PCR. Radiotracer and voltage-clamp experiments were performed (at 22° C.) in Xenopus oocytes two to seven days after injection with ˜25 ng of SVCT1 or SVCT2 cRNA synthesized in vitro. Radiotracer uptake was determined by incubating 6-10 oocytes for 30 or 60 min in standard 100 mM Na^+ or Na^+-free media with 10-600 μM L-[^14C]ascorbic acid. […]
Radiotracer uptake was determined by incubating 6-10 oocytes for 30 or 60 min in standard Na^+ or Na^+-free media (at 22° C.) with 10-600 μM L-[1-^14C]ascorbic acid (final specific activity 0.3 GBq/mmol). Oocytes were solubilized with 10% SDS and [^14C]-content was measured by liquid scintillation counting. […] Steady-state data (obtained by averaging the points over the final 16.7 ms at each Vm step when step-changes were applied) were fitted to equation (1) below, for which I is the evoked current (i.e., the difference in steady-state current measured in the presence and absence of substrate), Imax the derived current maximum, S the concentration of substrate S (Na^+ or L-ascorbic acid), […]

## O=C1C(CC[S+]([O-])c2ccccc2)C(=O)N(c2ccccc2)N1c1ccccc1 (stereo not shown) [sulfinpyrazone]
  inhibition of SVCT2-mediated L-[14C]ascorbic acid uptake (in words): modest inhibition
